The test deals with P388 leukemia ip, CD2F1 mice, survival T/C. As to the kind of experiment: NCI In Vivo Anticancer Drug Screen. Data for tumor model P388 Leukemia (intraperitoneal) in CD2F1 (CDF1) mice. The settings on record: T/C endpoint: median survival time, higher T/C = longer survival.
Where [1] appears, read: dose: 240.0 mg/kg/injection, schedule: Q01DX005 (ip), vehicle: saline with Tween-80.
[2] abbreviates: dose: 0.15 mg/kg/injection, schedule: Q01DX009 (ip), vehicle: Klucel (hydroxypropylcellulose) (HPC).

Each structure is given as a SMILES string. The list shows only some results of the screen, not a fair sample: it is rich in T/C values a quarter to a half above the control, in often repeated tests (any T/C) and in doses without a T/C. Other doses and runs of a compound stand elsewhere. T/C gives the treated animals as a percentage of the vehicle group. Some entries give survivors of the animals treated and no T/C: the source holds a T/C of zero for them, seemingly a mark for toxic or unscored doses. Some doses without a T/C left all or most animals alive at the check, yet need not have been tolerated: the source hardly ever lists a survival T/C far under the control, and the zero likely stands for such cases as well. Survivors were counted at the toxicity check, usually on the fifth day, unless a day is given; later deaths do not show. Schedule codes are those of the source, taken here to give the interval after Q, in days (D) or hours (H), and the number of doses after X. Some molecules as drawn cover several salts, stereoisomers or complexes of the source; a dose is that of the sample tested. For survival time, this PubChem deposit counts one and a half times the control or more as active, and values a quarter to a half above the control carry no call in these data; other NCI protocols may use other cut-offs. Some T/C values carry the count of animals alive at the toxicity check (mostly the fifth day); without a count, all were alive then. Some doses were run more than once; the results are listed from low to high. Brackets with × stand for listed records that agree.

On to `CCOC(=O)Nc1cc2c(c(N)n1)N=C(c1ccccc1)CO2`, for which the T/C was 105 % of control (dose: 50.0 mg/kg/injection, schedule: Q01DX005 (ip), vehicle: DMSO, evaluated on day 20); 100, 115, 119, 126 % of control (dose: 50.0 mg/kg/injection, schedule: Q01DX005 (ip), vehicle: DMSO, evaluated on day 30); 115 % of control (dose: 50.0 mg/kg/injection, schedule: Q01DX005 (ip), vehicle: Klucel (hydroxypropylcellulose) (HPC), evaluated on day 20); 102, 107, 108 % of control (2×) (dose: 50.0 mg/kg/injection, schedule: Q01DX005 (ip), vehicle: Klucel (hydroxypropylcellulose) (HPC), evaluated on day 30); 105 % of control (dose: 50.0 mg/kg/injection, schedule: Q01DX005 (ip), vehicle: alcohol, evaluated on day 20); 94, 104 (2×), 105 % of control (dose: 50.0 mg/kg/injection, schedule: Q01DX005 (ip), vehicle: alcohol, evaluated on day 30). Moreover, the T/C is, setting by setting: (dose: 50.0 mg/kg/injection, schedule: Q01DX005 (ip), vehicle: other, evaluated on day 20) 108 % of control; (dose: 50.0 mg/kg/injection, schedule: Q01DX005 (ip), vehicle: other, evaluated on day 30) 101, 105, 108, 110 % of control; (dose: 50.0 mg/kg/injection, schedule: Q01DX005 (ip), vehicle: saline with Tween-80, evaluated on day 20) 112 % of control; (dose: 50.0 mg/kg/injection, schedule: Q01DX005 (ip), vehicle: saline with Tween-80, evaluated on day 30) 104, 108, 109, 110, 112, 126 % of control; (dose: 100.0 mg/kg/injection, schedule: Q01DX005 (ip), vehicle: DMSO, evaluated on day 20) 111 % of control; (dose: 100.0 mg/kg/injection, schedule: Q01DX005 (ip), vehicle: DMSO, evaluated on day 30) 116 [5 of 6 alive], 122, 127, 147 % of control. The T/C (dose: 100.0 mg/kg/injection, schedule: Q01DX005 (ip), vehicle: Klucel (hydroxypropylcellulose) (HPC), evaluated on day 20) was 118 % of control; the T/C (dose: 100.0 mg/kg/injection, schedule: Q01DX005 (ip), vehicle: Klucel (hydroxypropylcellulose) (HPC), evaluated on day 30) was 111, 116 (2×), 123 % of control; the T/C (dose: 100.0 mg/kg/injection, schedule: Q01DX005 (ip), vehicle: alcohol, evaluated on day 20) is 115 % of control; the T/C (dose: 100.0 mg/kg/injection, schedule: Q01DX005 (ip), vehicle: alcohol, evaluated on day 30) is reported as 93, 100, 102, 108 % of control; the T/C (dose: 100.0 mg/kg/injection, schedule: Q01DX005 (ip), vehicle: other, evaluated on day 20) is 109 % of control; the T/C (dose: 100.0 mg/kg/injection, schedule: Q01DX005 (ip), vehicle: other, evaluated on day 30) is 110, 111, 112, 113 % of control. For the same compound, the T/C is, setting by setting: (dose: 100.0 mg/kg/injection, schedule: Q01DX005 (ip), vehicle: saline with Tween-80, evaluated on day 20) 116 % of control; (dose: 100.0 mg/kg/injection, schedule: Q01DX005 (ip), vehicle: saline with Tween-80, evaluated on day 30) 108, 115 (2×), 119, 126, 140, 144 % of control; (dose: 200.0 mg/kg/injection, schedule: Q01DX005 (ip), vehicle: DMSO, evaluated on day 20) 121 % of control; (dose: 200.0 mg/kg/injection, schedule: Q01DX005 (ip), vehicle: DMSO, evaluated on day 30) 135, 140, 150, 156 % of control; (dose: 200.0 mg/kg/injection, schedule: Q01DX005 (ip), vehicle: Klucel (hydroxypropylcellulose) (HPC), evaluated on day 20) 127 % of control; (dose: 200.0 mg/kg/injection, schedule: Q01DX005 (ip), vehicle: Klucel (hydroxypropylcellulose) (HPC), evaluated on day 30) 105, 119, 120, 127 % of control. The T/C was 102 % of control (dose: 200.0 mg/kg/injection, schedule: Q01DX005 (ip), vehicle: alcohol, evaluated on day 20); 106, 112, 113, 121 % of control (dose: 200.0 mg/kg/injection, schedule: Q01DX005 (ip), vehicle: alcohol, evaluated on day 30); 120 % of control (dose: 200.0 mg/kg/injection, schedule: Q01DX005 (ip), vehicle: other, evaluated on day 20); 117, 119, 124, 125 % of control (dose: 200.0 mg/kg/injection, schedule: Q01DX005 (ip), vehicle: other, evaluated on day 30); 125 % of control (dose: 200.0 mg/kg/injection, schedule: Q01DX005 (ip), vehicle: saline with Tween-80, evaluated on day 20); 112, 114, 120, 123, 128, 180 % of control (dose: 200.0 mg/kg/injection, schedule: Q01DX005 (ip), vehicle: saline with Tween-80, evaluated on day 30). Further, the T/C is, setting by setting: (dose: 400.0 mg/kg/injection, schedule: Q01DX005 (ip), vehicle: DMSO, evaluated on day 20) 131 % of control; (dose: 400.0 mg/kg/injection, schedule: Q01DX005 (ip), vehicle: DMSO, evaluated on day 30) 148, 166 [4 of 6 alive], 173 % of control; (dose: 400.0 mg/kg/injection, schedule: Q01DX005 (ip), vehicle: Klucel (hydroxypropylcellulose) (HPC), evaluated on day 20) 131 % of control; (dose: 400.0 mg/kg/injection, schedule: Q01DX005 (ip), vehicle: Klucel (hydroxypropylcellulose) (HPC), evaluated on day 30) 116, 120, 135, 141 % of control; (dose: 400.0 mg/kg/injection, schedule: Q01DX005 (ip), vehicle: alcohol, evaluated on day 20) 116 % of control; (dose: 400.0 mg/kg/injection, schedule: Q01DX005 (ip), vehicle: alcohol, evaluated on day 30) 108, 112, 121, 125 % of control. Further, the T/C runs as follows: (dose: 400.0 mg/kg/injection, schedule: Q01DX005 (ip), vehicle: other, evaluated on day 20) 127 % of control; (dose: 400.0 mg/kg/injection, schedule: Q01DX005 (ip), vehicle: other, evaluated on day 30) 122, 127, 128, 138 % of control; (dose: 400.0 mg/kg/injection, schedule: Q01DX005 (ip), vehicle: saline with Tween-80, evaluated on day 20) 126 % of control; (dose: 400.0 mg/kg/injection, schedule: Q01DX005 (ip), vehicle: saline with Tween-80, evaluated on day 30) 87, 116, 125, 130 [5 of 6 alive], 135, 137 % of control. The survivor count (dose: 400.0 mg/kg/injection, schedule: Q01DX005 (ip), vehicle: DMSO) is listed as 0 of 6.

`COc1ccc(NC(CCN2CCN(CCC(=NC(C)(C)C)Nc3ccc(OC)cc3)CC2)=NC(C)(C)C)cc1`: the survivor count reads like this: (dose: 200.0 mg/kg/injection, schedule: Q01DX005 (ip), vehicle: Klucel (hydroxypropylcellulose) (HPC)) 2 of 6; (dose: 200.0 mg/kg/injection, schedule: Q01DX009 (ip), vehicle: saline) 0 of 6. Besides, where the note is “dose: 200.0 mg/kg/injection, schedule: Q01DX009 (ip), vehicle: Klucel (hydroxypropylcellulose) (HPC)”, the T/C is 128 % of control [5 of 6 alive].

In the case of `CCn1c2ccccc2n2c(=O)c(Cc3ccccc3)c(C)c(C#N)c12`, the survivor count (dose: 60.0 mg/kg/injection, schedule: Q01DX005 (ip), vehicle: saline with Tween-80) is given as 6 of 6; the survivor count (dose: 120.0 mg/kg/injection, schedule: Q01DX005 (ip), vehicle: saline with Tween-80) is 6 of 6; the survivor count under setting [1] was 6 of 6.

Consider `COc1cc(C2C3=C(CC(C)(C)CC3=O)Oc3cc4c(cc32)OCO4)cc(OC)c1OC` (centres undefined), for which the survivor count under setting [1] is given as 6 of 6.

As to `Cc1c2oc3c(C)c([N+](=O)[O-])cc(C(=O)NC4C(=O)NC(C(C)C)C(=O)N5CCCC5C(=O)N(C)CC(=O)N(C)C(C(C)C)C(=O)OC4C)c3nc-2c(C(=O)NC2C(=O)NC(C(C)C)C(=O)N3CCCC3C(=O)N(C)CC(=O)N(C)C(C(C)C)C(=O)OC2C)c(N)c1=O` (centres undefined), the T/C is 140 % of control (dose: 0.04 mg/kg/injection, schedule: Q01DX009 (ip), vehicle: Klucel (hydroxypropylcellulose) (HPC)) and 130 % of control under setting [2]. Besides, the survivor count is listed as 6 of 6 under setting [2]; 5 of 6 (dose: 0.3 mg/kg/injection, schedule: Q01DX009 (ip), vehicle: Klucel (hydroxypropylcellulose) (HPC)); 1 of 6 (dose: 0.6 mg/kg/injection, schedule: Q01DX009 (ip), vehicle: Klucel (hydroxypropylcellulose) (HPC)).

As for `O=C(O)c1ccc(NC(=S)NC(=O)c2cccc(Br)c2)cc1`, the survivor count under setting [1] is on record as 5 of 6.

These data come from PubChem BioAssay AID330 (DTP/NCI, 2004).
